# Primary screen of a compound library

By UniProt entry, the sequences of proteins in these tests, tags left out.
UniProt E9BF75, entry or part of it: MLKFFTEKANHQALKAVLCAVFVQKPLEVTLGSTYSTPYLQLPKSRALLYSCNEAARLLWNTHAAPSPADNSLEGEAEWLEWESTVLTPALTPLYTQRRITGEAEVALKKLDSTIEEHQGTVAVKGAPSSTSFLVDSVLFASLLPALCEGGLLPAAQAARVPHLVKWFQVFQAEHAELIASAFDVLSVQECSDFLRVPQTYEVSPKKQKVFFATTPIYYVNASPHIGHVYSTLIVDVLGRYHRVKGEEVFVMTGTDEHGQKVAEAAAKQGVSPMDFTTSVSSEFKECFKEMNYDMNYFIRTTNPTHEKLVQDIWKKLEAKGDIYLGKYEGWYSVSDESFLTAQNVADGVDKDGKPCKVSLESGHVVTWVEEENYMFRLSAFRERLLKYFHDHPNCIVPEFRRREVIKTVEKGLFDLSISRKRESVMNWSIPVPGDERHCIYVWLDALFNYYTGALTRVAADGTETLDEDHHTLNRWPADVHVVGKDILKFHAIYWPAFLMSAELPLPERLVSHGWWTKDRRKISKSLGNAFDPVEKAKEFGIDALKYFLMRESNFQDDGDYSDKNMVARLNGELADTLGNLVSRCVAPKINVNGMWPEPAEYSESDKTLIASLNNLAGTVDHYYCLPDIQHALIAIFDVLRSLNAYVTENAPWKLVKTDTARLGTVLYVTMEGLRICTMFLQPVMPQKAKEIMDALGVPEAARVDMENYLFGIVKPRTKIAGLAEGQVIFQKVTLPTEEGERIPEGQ

A: 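Assay on Mycobacterium tuberculosis, filed only as a heat shock assay from Cornell; the read-out is not stated. The concentration is filed as 10 mM, unlikely as a test dose, so the dose is not known. Higher reads as stronger inhibition (inferred: compounds with an IC50 in retests scored well above the rest). About 69,000 compounds were tested under these conditions; 1.4% (about 930) showed 50% or more at least once.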
B: 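Whole-cell assay for inhibitors of Mycobacterium tuberculosis growth, labelled Cornell in the record; the read-out is not stated. The concentration is filed as 10 mM, unlikely as a test dose, so the dose is not known. The record gives no direction; compounds strong in two other growth screens of this library score well above the rest, so higher reads as stronger inhibition. Size under these conditions: about 53,000 compounds, about 900 of them at 50% or above in at least one test.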
C: 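Primary screen of methionyl-tRNA synthetase; the read-out is not stated. Target: Methionyl-tRNA synthetase (putative), Leishmania donovani (UniProt E9BF75). The test concentration is not given. Values are per cent inhibition. About 68,000 compounds were tested under these conditions; 0.035% (about 24) showed 50% or more at least once.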

Results are percentages, as filed. How 0% and 100% were set is not recorded. Most values in the screen are low, and negative values occur. The compounds are a random part of those screened. A dash means the value is not listed here; it may have been measured.

compound	A	B	C
CCCN(C)C(=O)c1ccc2c(c1)[nH]c(=O)n2CCOCC	-1.249%	-	10.51%
CN(C)c1ccc(C(=O)N2CCCCC2CC(N)=O)c(F)c1 (stereo not shown)	-3.542%	-	11.78%
O=C(CCc1cscn1)N1CCC(C(=O)O)(c2ccccc2)CC1	8.175%	-0.9759%	3.623%
O=C(Cc1nc(-c2ccncc2)n[nH]1)N1CCOCC1	9.25%	-3.393%	6.811%
Cc1cc(C(=O)N2CC[C@H](N3CCN(C)CC3)[C@H](CCCO)C2)n(C)n1	11.33%	6.061%	12.47%
CC(=O)NCc1nc(Cc2cccc(Cl)c2)nn1C1CCN(C)CC1	5.448%	-19.33%	6.774%
CCS(=O)(=O)N1CC[C@@H]2[C@H](COCC3CC3)CN(C)C(=O)[C@@H]2CC1	-	-	-5.263%
CCn1cnc2c(cnn2-c2cccc(C)c2C)c1=O	3.179%	-14.81%	10.99%
COc1cn(CC(N)=O)c(CSc2nc(C)cc(C)n2)cc1=O	-33.41%	-45.24%	7.042%
CCc1ccc(C(C)NCc2nccn2Cc2ccccc2)o1 (stereo not shown)	91.1%	12.08%	9.341%
CN(C)Cc1nnn2c1CN(Cc1cccnc1)CCC2.O=C(O)C(F)(F)F.O=C(O)C(F)(F)F.O=C(O)C(F)(F)F	-31.32%	-0.6203%	-
Cc1cc(OC(F)F)c(C(=O)NCC(O)c2cccc(F)c2)s1 (stereo not shown)	-3.391%	24.68%	7.99%
Fc1ccc(CN2CCCC(Cn3cncn3)C2)c2ncccc12 (stereo not shown)	3.983%	12.66%	14.17%
FC(F)(F)c1cccnc1N1CCC(OC2CCOCC2)CC1	-3.926%	25.28%	4.032%
COc1ccccc1CC(=O)N1CCC(NCc2ccc(C)o2)CC1	10.38%	-	16.19%
Cc1[nH]c2ccccc2c1-c1ccnc(N[C@@H](CO)C(C)C)n1	-12.21%	18.28%	17.72%
Cc1ccc(CN2C(=O)CC[C@]23CC[C@@H](NCC2CCOC2)CC3)cc1 (stereo partly shown)	-	-	2.778%
COC(=O)c1ccc(CN(C(C)C)C(C)C)o1.Cl	-109.5%	-	-
Cc1c(C)n(CC(O)CN2CCCCCC2)c2c(Cl)cccc12 (stereo not shown)	11.72%	4.748%	5.59%
CC(C)[C@H](N)c1nnc(SCC(=O)Nc2ccc(Br)cc2)o1	-	-	8.746%
CCn1c2c(ccc1=O)CC(NCc1cnn(C)c1)CC2 (stereo not shown)	19.13%	-11.41%	10.56%
CCc1n[nH]c(C2CN(Cc3nccn3CC)CCO2)n1 (stereo not shown)	-13.27%	-	7.639%
COc1c(NC(=O)N(C)CCOc2ccccc2)c(C)nn1C	5.04%	-29.29%	5.072%
COCCN1C(=O)C2(CCC(C(=O)Nc3ccc(F)cc3)CC2)N=C1C (stereo not shown)	-4.066%	-39.84%	5.923%
CC(=O)N1CC2(CCN(C(=O)CO)CC2)c2cc(C)ccc21	7.162%	-31.17%	13.14%
COc1ccccc1CN1CC[C@]2(C[C@@H](OC)CO2)C1	-	-	18.16%
Cc1cc(C(=O)N2CCN(C)CC2)nn1CC(=O)NCc1ccccn1.Cl	-24.19%	38.43%	-
Cc1nc(CC(=O)N2CCOC(c3nc(C(C)(C)C)n[nH]3)C2)cs1 (stereo not shown)	4.575%	12.96%	17.39%
CN1CCCC1c1cc2cccnc2n1Cc1ccc(F)cc1.Cl (stereo not shown)	-7.296%	28.9%	-
O=C(C1CCCC1)N1CCC(C(O)c2ccc(F)cc2)CC1 (stereo not shown)	-9.751%	-	11.23%
COc1ccc(C(O)CNC(=O)NCc2c(C)cc(C)[nH]c2=O)cc1 (stereo not shown)	-4.84%	2.373%	21.14%
O=C(CN1C=Nc2ccccc2S1(=O)=O)NCCc1cccs1	12.53%	14.67%	9.449%
CCCNC(=O)N1CCC(c2nnc(Cn3cccn3)n2C2CC2)CC1	-6.24%	-6.93%	16.71%
CCn1cc(C(=O)NCc2ccc3c(c2)OCO3)c(C)n1	1.53%	9.255%	7.833%
O=C(NCc1cccnc1)N[C@H]1CC[C@@]2(CCC(=O)N2CC2CC2)CC1	-	-	4.156%
Cc1ccc(F)c(NC(=O)CCC(=O)N(C)Cc2cc(C3CC3)[nH]n2)c1	-8.101%	11.91%	9.581%
CNS(=O)(=O)CC(=O)NC(C)Cc1ccccc1Br (stereo not shown)	-19.03%	7.159%	6.832%
O=C(c1ccc[nH]1)N1CCC2(CC1)C(=O)Nc1ccccc12	10.07%	19.74%	17.47%
CC(=O)N1CCC2(CC1)CN(C(=O)C1CC1)c1ccc(F)cc12	0.7494%	-	4.444%
CSc1nccc(-c2cccc(-c3ccn(CC4COCCO4)n3)c2)n1 (stereo not shown)	87.01%	71.9%	16.72%
CCC(C)C(=O)NS(=O)(=O)c1ccc(C#N)cc1C(F)(F)F (stereo not shown)	-13.66%	21.27%	25%
CC1CCCN(c2ncc(C(=O)NCc3ccc(F)c(Cl)c3)c(N)n2)C1 (stereo not shown)	-22.48%	22.9%	18.06%
CC(=O)N1CCCN(C(=O)c2ccc(Sc3ccccn3)cc2)CC1	-15.76%	4.702%	13.4%
CCNc1cc2c(nn1)CCN(C(=O)c1ccnc(C)n1)C2	32.58%	-	7.65%
COc1cccc(S(=O)(=O)N2CCCCC2CCN2CCCC2=O)c1 (stereo not shown)	-4.367%	-12.24%	11.92%
COCC1CCN(C(C(=O)O)c2c(F)cccc2OC(C)C)CC1 (stereo not shown)	-9.42%	-11.23%	12.47%
CC(CCN1CCn2nc(CNC(=O)N(C)C)cc2C1)c1ccccc1 (stereo not shown)	2.874%	-	15.58%
CC(C)C(=O)N1CCN(C(=O)c2cc(C(C)C)no2)[C@H]2CS(=O)(=O)C[C@H]21	-	-	14.21%
CN1CCC(O)(CCNC(=O)[C@@]23CNC[C@@H]2CN(C2CCCC2)C3)CC1	-	-	5.897%
COCC(=O)N1CCc2[nH]c(=O)ccc2C1	2.549%	-9.098%	5.797%
C/N=C1\c2cc3cc(OC)ccc3n2CCN1Cc1ccccc1.O=C(O)C(F)(F)F	8.728%	22.23%	-
COCCCNC(=O)Nc1ccc(F)c(C(N)=O)c1	-20.33%	-	23.5%
Cc1ccc(C2CSCCN2C(=O)NCc2cccnc2)cc1 (stereo not shown)	4.053%	30.05%	14.56%
CCOC(=O)Cc1csc(NC(=O)c2ccc(=O)[nH]n2)n1	-21.82%	-	13.47%
Cc1cc(C2CCCN2C(=O)c2ccc(OCC(N)=O)cc2)no1 (stereo not shown)	8.62%	-42.35%	12.26%
CS(=O)(=O)N1CCO[C@@H]2CN(C(=O)c3cccnc3)C[C@@H]2C1	-	-	15.3%

Some entries from above, unchanged:

CCS(=O)(=O)N1CC[C@@H]2[C@H](COCC3CC3)CN(C)C(=O)[C@@H]2CC1 read C: -5.263%.
O=C(Cc1nc(-c2ccncc2)n[nH]1)N1CCOCC1 read A: 9.25%; B: -3.393%; C: 6.811%.
CCOC(=O)Cc1csc(NC(=O)c2ccc(=O)[nH]n2)n1 read A: -21.82%; C: 13.47%.
COCC1CCN(C(C(=O)O)c2c(F)cccc2OC(C)C)CC1 (stereo not shown) read A: -9.42%; B: -11.23%; C: 12.47%.

Source: ChEMBL document CHEMBL3988442, “University of Dundee, Small-Polar-MMV Screening Library” (2021).